The list shows a part of the results. Most values lie at the level of the controls, where differences are scatter.

By UniProt entry, the sequences of proteins in these tests, tags left out. Where a name states a change or a piece, a line headed by the entry shows the natural chain unless it says otherwise.
UniProt Q5TAQ9: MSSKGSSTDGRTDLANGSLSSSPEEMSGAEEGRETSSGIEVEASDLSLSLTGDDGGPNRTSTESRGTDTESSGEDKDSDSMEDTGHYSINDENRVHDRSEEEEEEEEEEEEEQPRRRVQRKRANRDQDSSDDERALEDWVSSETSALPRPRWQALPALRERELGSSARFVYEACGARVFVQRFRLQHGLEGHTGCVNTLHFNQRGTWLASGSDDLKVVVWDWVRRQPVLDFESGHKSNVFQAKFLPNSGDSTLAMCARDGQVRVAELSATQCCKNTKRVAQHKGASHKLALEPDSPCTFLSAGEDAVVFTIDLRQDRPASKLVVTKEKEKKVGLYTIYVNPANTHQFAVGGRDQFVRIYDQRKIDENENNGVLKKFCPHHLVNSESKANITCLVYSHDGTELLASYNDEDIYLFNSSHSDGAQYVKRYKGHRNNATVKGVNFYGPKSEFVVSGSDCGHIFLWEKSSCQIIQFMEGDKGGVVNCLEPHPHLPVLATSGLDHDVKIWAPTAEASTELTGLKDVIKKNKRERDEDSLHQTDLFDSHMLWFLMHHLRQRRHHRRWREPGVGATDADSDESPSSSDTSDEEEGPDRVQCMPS
UniProt Q5JTD0: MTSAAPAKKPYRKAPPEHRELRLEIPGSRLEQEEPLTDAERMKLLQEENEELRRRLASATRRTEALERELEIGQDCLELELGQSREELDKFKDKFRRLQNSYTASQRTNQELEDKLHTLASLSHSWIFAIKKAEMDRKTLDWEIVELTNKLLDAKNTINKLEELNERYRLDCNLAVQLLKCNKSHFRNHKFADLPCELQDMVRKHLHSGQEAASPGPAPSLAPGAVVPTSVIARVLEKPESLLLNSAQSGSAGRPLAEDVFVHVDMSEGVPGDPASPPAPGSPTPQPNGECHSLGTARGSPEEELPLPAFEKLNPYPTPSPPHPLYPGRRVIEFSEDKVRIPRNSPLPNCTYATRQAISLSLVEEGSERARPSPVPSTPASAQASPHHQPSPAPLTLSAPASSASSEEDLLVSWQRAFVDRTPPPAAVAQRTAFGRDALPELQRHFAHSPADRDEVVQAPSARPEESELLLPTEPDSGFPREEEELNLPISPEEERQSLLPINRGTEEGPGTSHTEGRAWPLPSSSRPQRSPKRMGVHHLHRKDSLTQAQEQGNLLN
UniProt Q5TEC3: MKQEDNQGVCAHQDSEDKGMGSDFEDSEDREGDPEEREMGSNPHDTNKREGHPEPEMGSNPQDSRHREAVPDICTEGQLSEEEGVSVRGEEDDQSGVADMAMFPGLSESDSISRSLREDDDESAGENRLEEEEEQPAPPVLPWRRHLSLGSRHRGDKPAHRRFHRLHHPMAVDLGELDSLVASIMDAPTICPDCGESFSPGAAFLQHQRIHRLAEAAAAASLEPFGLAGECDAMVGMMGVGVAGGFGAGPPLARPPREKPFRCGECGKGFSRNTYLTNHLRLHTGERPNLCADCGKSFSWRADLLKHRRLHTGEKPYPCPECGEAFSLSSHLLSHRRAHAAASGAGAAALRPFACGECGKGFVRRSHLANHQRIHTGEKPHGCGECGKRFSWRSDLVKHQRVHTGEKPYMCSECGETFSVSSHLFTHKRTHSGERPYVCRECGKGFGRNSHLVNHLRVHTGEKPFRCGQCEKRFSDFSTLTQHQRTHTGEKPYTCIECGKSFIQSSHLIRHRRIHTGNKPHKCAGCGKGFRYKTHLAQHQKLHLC
UniProt Q4KMQ1: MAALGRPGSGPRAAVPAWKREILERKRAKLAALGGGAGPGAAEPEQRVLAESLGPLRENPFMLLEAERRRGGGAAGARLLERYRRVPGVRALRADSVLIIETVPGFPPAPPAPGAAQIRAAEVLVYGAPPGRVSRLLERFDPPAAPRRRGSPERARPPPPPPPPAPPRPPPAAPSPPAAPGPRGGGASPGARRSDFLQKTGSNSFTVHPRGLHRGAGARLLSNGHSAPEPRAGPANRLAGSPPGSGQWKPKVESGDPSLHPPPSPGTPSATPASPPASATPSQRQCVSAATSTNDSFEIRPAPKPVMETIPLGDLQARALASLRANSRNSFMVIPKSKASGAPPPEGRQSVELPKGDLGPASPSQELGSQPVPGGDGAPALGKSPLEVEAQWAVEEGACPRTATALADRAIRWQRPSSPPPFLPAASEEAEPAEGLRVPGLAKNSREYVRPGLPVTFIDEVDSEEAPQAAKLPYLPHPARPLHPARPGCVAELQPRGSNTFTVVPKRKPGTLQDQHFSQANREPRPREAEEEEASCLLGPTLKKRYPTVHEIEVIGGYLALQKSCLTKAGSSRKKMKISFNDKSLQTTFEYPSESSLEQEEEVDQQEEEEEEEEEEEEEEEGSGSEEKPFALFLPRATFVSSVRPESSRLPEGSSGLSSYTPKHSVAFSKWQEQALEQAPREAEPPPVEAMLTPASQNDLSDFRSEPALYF
UniProt Q5U623: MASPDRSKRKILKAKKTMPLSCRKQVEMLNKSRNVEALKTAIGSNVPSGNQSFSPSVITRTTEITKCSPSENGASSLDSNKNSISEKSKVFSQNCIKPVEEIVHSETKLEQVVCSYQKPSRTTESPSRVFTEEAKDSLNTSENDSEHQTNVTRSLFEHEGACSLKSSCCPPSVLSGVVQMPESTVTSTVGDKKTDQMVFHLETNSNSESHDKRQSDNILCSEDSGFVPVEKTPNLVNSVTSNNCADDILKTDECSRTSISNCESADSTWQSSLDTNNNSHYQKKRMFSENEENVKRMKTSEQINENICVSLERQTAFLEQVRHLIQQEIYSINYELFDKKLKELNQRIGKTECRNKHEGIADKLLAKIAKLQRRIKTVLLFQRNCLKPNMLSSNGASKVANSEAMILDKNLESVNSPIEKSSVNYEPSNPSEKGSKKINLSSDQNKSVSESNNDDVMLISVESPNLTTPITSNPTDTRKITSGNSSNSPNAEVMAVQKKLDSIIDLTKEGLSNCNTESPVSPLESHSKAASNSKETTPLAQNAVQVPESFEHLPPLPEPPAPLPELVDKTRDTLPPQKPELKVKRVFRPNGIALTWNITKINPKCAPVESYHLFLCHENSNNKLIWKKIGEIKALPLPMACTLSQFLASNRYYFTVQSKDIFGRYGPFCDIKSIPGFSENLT
UniProt Q5JNZ3: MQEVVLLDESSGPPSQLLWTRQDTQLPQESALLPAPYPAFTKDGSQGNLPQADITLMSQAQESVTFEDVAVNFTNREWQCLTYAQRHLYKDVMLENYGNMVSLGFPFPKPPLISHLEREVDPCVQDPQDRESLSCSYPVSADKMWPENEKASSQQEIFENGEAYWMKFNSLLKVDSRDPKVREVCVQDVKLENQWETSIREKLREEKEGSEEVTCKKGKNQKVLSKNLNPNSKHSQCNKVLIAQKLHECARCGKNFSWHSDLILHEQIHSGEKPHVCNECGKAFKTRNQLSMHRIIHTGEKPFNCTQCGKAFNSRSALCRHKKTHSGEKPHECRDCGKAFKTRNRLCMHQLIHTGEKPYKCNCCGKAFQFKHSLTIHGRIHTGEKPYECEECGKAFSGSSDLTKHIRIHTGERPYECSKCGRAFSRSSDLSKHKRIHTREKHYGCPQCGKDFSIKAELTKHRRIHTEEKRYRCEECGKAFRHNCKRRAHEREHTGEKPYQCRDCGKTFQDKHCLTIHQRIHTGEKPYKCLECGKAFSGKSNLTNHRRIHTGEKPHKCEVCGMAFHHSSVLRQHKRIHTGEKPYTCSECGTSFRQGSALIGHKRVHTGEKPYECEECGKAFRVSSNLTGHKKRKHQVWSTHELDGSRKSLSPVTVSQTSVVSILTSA
UniProt Q53HV7: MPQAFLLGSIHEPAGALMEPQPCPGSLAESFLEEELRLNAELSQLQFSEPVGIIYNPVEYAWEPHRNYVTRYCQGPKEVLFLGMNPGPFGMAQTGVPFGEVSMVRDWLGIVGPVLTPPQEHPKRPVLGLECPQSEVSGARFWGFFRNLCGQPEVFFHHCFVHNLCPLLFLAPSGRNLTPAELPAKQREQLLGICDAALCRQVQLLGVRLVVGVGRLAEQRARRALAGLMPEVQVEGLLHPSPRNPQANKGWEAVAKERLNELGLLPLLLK
UniProt Q5H9F3: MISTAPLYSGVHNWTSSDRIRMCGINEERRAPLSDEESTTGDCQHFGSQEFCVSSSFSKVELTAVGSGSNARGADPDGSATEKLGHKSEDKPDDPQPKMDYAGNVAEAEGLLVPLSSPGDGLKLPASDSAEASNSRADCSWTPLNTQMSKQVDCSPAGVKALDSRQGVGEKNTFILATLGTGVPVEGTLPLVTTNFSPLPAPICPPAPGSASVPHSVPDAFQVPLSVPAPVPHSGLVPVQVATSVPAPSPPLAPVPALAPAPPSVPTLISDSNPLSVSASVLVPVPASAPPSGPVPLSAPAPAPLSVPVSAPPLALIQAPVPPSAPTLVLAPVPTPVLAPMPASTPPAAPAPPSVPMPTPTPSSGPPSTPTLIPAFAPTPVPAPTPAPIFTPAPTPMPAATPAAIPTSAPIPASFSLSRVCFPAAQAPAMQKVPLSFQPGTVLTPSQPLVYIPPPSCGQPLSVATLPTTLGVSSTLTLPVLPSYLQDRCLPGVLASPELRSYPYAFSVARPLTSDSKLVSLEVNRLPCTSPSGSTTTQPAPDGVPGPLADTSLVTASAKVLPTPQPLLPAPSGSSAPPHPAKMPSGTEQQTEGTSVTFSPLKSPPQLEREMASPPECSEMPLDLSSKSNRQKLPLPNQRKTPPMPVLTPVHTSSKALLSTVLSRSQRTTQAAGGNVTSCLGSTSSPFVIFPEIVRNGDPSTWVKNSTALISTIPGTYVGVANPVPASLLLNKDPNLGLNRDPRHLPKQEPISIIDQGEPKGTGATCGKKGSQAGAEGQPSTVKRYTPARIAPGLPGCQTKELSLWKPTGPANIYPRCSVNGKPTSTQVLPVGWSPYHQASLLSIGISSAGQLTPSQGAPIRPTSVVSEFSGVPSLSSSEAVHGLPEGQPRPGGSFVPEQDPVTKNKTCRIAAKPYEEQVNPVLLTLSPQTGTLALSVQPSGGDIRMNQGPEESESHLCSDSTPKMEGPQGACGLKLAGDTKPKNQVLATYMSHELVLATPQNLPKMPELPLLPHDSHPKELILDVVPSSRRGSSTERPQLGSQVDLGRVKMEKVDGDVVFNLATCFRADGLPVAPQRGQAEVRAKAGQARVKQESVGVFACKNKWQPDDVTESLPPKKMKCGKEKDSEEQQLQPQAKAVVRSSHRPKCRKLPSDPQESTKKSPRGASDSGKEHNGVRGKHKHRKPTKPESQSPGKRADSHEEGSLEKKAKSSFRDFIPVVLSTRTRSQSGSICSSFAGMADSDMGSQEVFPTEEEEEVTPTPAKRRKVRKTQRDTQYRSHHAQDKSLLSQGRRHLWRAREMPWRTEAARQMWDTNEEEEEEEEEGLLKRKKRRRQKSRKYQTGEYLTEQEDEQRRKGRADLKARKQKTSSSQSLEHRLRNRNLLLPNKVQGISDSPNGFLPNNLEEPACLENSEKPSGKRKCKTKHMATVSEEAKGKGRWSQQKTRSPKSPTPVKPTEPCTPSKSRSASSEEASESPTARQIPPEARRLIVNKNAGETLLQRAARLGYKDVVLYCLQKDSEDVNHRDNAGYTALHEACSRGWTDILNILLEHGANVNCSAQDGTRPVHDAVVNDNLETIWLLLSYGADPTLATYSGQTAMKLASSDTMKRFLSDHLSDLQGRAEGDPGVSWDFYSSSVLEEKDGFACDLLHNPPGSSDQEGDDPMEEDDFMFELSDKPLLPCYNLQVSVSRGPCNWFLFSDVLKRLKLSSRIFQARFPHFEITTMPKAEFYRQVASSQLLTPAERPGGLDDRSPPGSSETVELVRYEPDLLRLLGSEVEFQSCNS

Compound in this experiment: CN[C@@H]1C[C@H]2O[C@@](C)([C@@H]1OC)n1c3ccccc3c3c4c(c5c6ccccc6n2c5c31)C(=O)NC4 [staurosporine]
As to the kind of experiment: log2 fold change of tryptic peptide abundance, ligand vs vehicle (limited proteolysis) (log2 ratio); higher = more trypsin-susceptible (destabilized). The conditions noted are these: ligand concentration: 20 uM; sample: K562 cleared lysate; digestion: 4 min, 22 C (HT-PELSA RT4min, Orbitrap Astral).
For the target “UniProt Q5TAQ9 (peptide sequence: GTWLASGSDDLK, peptide start residue: 205)”, the log2 fold change is -0.368.
Consider “TJAP1 (peptide sequence: MGVHHLHR, peptide start residue: 535) (UniProt Q5JTD0)”, for which the log2 fold change was found to be 0.572.
For “UniProt Q5TEC3 (peptide sequence: EMGSNPHDTNKR, peptide start residue: 38)” the value was 0.297.
For “TPRN (peptide sequence: ATFVSSVRPESSR, peptide start residue: 637) (UniProt Q4KMQ1)” the value was 0.0246; for “ATF7IP2 (peptide sequence: NKHEGIADK, peptide start residue: 355) (UniProt Q5U623)”, 0.0492.
In the case of “UniProt Q5JNZ3 (peptide sequence: VHTGEKPYECEECGK, peptide start residue: 363)” it was 0.591.
For “SMUG1 (peptide sequence: ERLNELGLLPLLLK, peptide start residue: 257) (UniProt Q53HV7)”, the log2 fold change was determined as 0.348.
For “BCORL1 (peptide sequence: VELTAVGSGSNAR, peptide start residue: 60) (UniProt Q5H9F3)” the value was -0.597.
